From PubChem BioAssay record AID1224904 (Broad Institute, 2016).

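293T-iDUX4 dual-reporter cells; luminescence of the tet-on Italica luciferase control is read after 24 h. The test concentration is not given here. Percent change in the Italica control signal; more negative values mean stronger inhibition, which points to nonspecific, tet-on or cytotoxic effects.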

Values are in %. Common to all entries: measured here: Italica tet-on control reporter. This is a side read-out of the assay, for part of the compounds, not drawn at random.

{"structure": "O=C(C[C@@H]1CC[C@@H]2[C@H](COC[C@@H](O)CN2CCc2ccccc2)O1)N1CCC(Cc2ccccc2)CC1", "activity change (%)": "-22.95"}
{"structure": "C[C@H](O)C#Cc1ccc([C@@H]2[C@H]3CN(C(=O)Nc4ccccc4)CCCCN3[C@H]2CO)cc1", "activity change (%)": "-22.97"}
{"structure": "COc1ccc(C#Cc2ccc([C@@H]3[C@@H](CO)N4CCCCN(C(=O)c5ccncc5)C[C@@H]34)cc2)cc1", "activity change (%)": "-21.6"}
{"structure": "Cc1ccccc1-c1ccccc1[C@H]1[C@@H](CO)N(C(=O)c2ccccc2)[C@H]1C#N", "activity change (%)": "5.966"}
{"structure": "COc1ccc(C#Cc2ccc([C@H]3[C@@H](CO)N4C(=O)CN(C(=O)c5ccc(F)cc5)C[C@H]34)cc2)cc1", "activity change (%)": "-8.161"}
{"structure": "CO[C@@H]1CN(C)C(=O)c2cc(NC(=O)c3ccc4c(c3)OCO4)ccc2OC[C@H](C)N(CCC(F)(F)F)C[C@@H]1C", "activity change (%)": "4.668"}
{"structure": "O=C(C[C@@H]1CC[C@@H]2[C@H](COC[C@H](O)CN2Cc2cccc(Cl)c2)O1)NCC1CCCCC1", "activity change (%)": "-19.14"}
{"structure": "O=C([C@H]1[C@H](CO)[C@H]2Cn3c(cccc3=O)[C@H]2N1Cc1ccccc1)N1CCCCC1", "activity change (%)": "1.347"}
{"structure": "COc1ccc(CN2C[C@@H](C)[C@H](OC)CN(C)C(=O)c3cc(NC(=O)c4nc5ccccc5s4)ccc3OC[C@H]2C)cc1", "activity change (%)": "-5.465"}
{"structure": "O=C1CN(S(=O)(=O)c2ccccc2)C[C@@H]2[C@@H](c3ccc(C#CCc4ccccc4)cc3)[C@@H](CO)N12", "activity change (%)": "-71.92"}
{"structure": "N#C[C@@H]1[C@H](c2ccccc2/C=C/c2ccccc2)[C@H](CO)N1S(=O)(=O)c1cccc(F)c1", "activity change (%)": "-32.48"}
{"structure": "O=C(C[C@@H]1CC[C@@H]2[C@H](COC[C@H](O)CN2Cc2ccc(Oc3ccccc3)cc2)O1)N1CCN(c2ccccc2)CC1", "activity change (%)": "-22.01"}
{"structure": "COc1ccccc1-c1ccc2c(c1)[C@H]1[C@H](CCN1S(=O)(=O)c1cccc(C)c1)[C@@H](CO)N2", "activity change (%)": "-65.73"}
{"structure": "COc1cccc(-c2ccc3c(c2)[C@@H]2[C@@H](CCN2S(=O)(=O)c2ccccc2F)[C@@H](CO)N3)c1", "activity change (%)": "-23.4"}
{"structure": "O=C(C[C@@H]1CC[C@@H]2[C@H](COC[C@H](O)CN2Cc2cccc(C(F)(F)F)c2)O1)NCCc1ccccc1", "activity change (%)": "-12.36"}
{"structure": "COc1cccc(CN2C[C@@H]3N[C@H](C2)C3c2ccc(-c3ccccc3OC)cc2)c1", "stereo": "stereo not given in full", "activity change (%)": "-12.15"}
{"structure": "O=S(=O)(Cc1ccccc1)N1CC2(C1)[C@H](c1ccccc1)[C@@H](CO)N2CC1CCOCC1", "activity change (%)": "-8.896"}
{"structure": "C[C@H]1CN([C@@H](C)CO)C(=O)c2c(c3ccccc3n2C)-c2ccccc2CO[C@H]1CN(C)Cc1cccc(C(F)(F)F)c1", "activity change (%)": "-71.91"}
{"structure": "COc1ccc(C#Cc2ccc([C@@H]3[C@H]4CN(S(=O)(=O)c5cn(C)cn5)CCCCN4[C@H]3CO)cc2)cc1", "activity change (%)": "-19.3"}
{"structure": "COc1ccc2c3c([nH]c2c1)[C@@H](CO)N(CC1CC1)CC31CN(C(=O)c2ccccc2)C1", "activity change (%)": "0.1063"}
{"structure": "O=C1CN(S(=O)(=O)Cc2ccccc2)C[C@H]2[C@H](c3ccc(C#Cc4ccccc4)cc3)[C@@H](CO)N12", "activity change (%)": "-23.21"}
{"structure": "COc1ccc2c3c([nH]c2c1)[C@@H](CO)N(C(=O)c1ccc(F)cc1)CC31CCN(C(=O)Nc2ccc(F)cc2)CC1", "activity change (%)": "-16.96"}
{"structure": "O=C(Cc1ccccn1)N1CCCCN2[C@@H](CO)[C@H](c3ccc(C#Cc4ccccc4)cc3)[C@@H]2C1", "activity change (%)": "-13.24"}
{"structure": "O=C(Nc1cccc(F)c1)N1CC(=O)N2[C@H](CO)[C@H](c3ccc(C#CCC4CCCC4)cc3)[C@@H]2C1", "activity change (%)": "-8.84"}
{"structure": "O=C(C1CCC1)N1C[C@@H]2N[C@H](C1)C2c1ccc(-c2cccc(F)c2)cc1", "stereo": "stereo not given in full", "activity change (%)": "-35.25"}

For reference, 3 entries once more:

For Cc1ccccc1-c1ccccc1[C@H]1[C@@H](CO)N(C(=O)c2ccccc2)[C@H]1C#N the result was activity change 5.966%.
For COc1cccc(CN2C[C@@H]3N[C@H](C2)C3c2ccc(-c3ccccc3OC)cc2)c1 (stereo not given in full) the result was activity change -12.15%.
For COc1ccc2c3c([nH]c2c1)[C@@H](CO)N(CC1CC1)CC31CN(C(=O)c2ccccc2)C1 the result was activity change 0.1063%.